Laboratory results reported in article PMC10177590, “Canine Intestinal Organoids as a Novel In Vitro Model of Intestinal Drug Permeability: A Proof-of-Concept Study” (Cells, 2023).
Where two headings read alike, the source gives them in different places.

Legend:
[1] = Bidirectional transport (Papp) across Caco-2 cell monolayers; format: in vitro ADME, human; conditions: human, Caco-2, pH 6.8, 2 mg/mL (7509 μM)
[2] = test system: Caco-2 cell monolayers; assay: as above; format: in vitro ADME, human
[3] = test system: canine-colonoid-derived monolayers; assay: Bidirectional transport (Papp) across canine-colonoid-derived monolayers; format: in vitro ADME, dog; conditions: for Papp × 10^−6: Dog colonoid
Description: After seven days of culture (Figure 3A), the 3D colonoids were harvested from the Matrigel® using the Corning™ cell recovery solution. Matrigel® plugs were dissociated by repeated pipetting after adding 500 μL of pre-chilled cell recovery solution into each well, and the plate was incubated for 30 min at 4 °C to dissolve the Matrigel®. The mixture was then transferred to a 15 mL tube and centrifuged at 100× g for 5 min at 4 °C. The organoid pellet was resuspended in 1 mL TrypLE Express and incubated at 37 °C for 10 min with shaking. To stop the TrypLE action, 6 mL of DMEM/F12 was added to the mixture before centrifugation at 100× g for 5 min at 4 °C. The supernatant was removed, and the pellet was resuspended with CMGF+ media. The harvested colonoid cell suspension was filtered through a sterile cell strainer (40 µm nylon mesh, Thermo Fisher Scientific) to obtain a single-cell suspension. The viability of dissociated cells was assessed by the trypan blue exclusion test, and cells were counted manually using a hemocytometer (Hausser Scientific, Horsham, PA, USA). The Transwell™ inserts were pre-coated with Matrigel® (100 μg/mL; Corning®) and rat tail collagen I (30 μg/mL; Fisher Scientific) to promote adhesion, growth, and differentiation in CMGF+ media at 37 °C for 1 h. Dissociated colonoid cells (Passages #15–20) were seeded at a density of 100,000 cells/cm^2 in pre-coated inserts and allowed to grow and differentiate in the presence of CMGF+ media for 10 to 12 days before the experiments (Figure 3B). The CMGF+ culture medium was changed every other day. The structural integrity of the cell monolayer was monitored every other day for up to two weeks by phase-contrast microscopy. Colonoid-derived monolayers and colonoids were fixed and processed for histology and/or TEM, as described in prior studies. All transport experiments were conducted at room temperature following the conditions outlined in earlier reports during sampling and incubation. The culture media were aspirated from both AP (0.2 mL) and BL (0.7 mL) chambers. For both the canine colonoid and the Caco-2 monolayer, the BL chambers with HBSS buffer at pH 7.4 (0.7 mL) and the AP chambers with appropriate HBSS buffer at pH 6.8 or 7.4 (0.2 mL) (canine) or pH 6.8 (0.2 mL) (Caco-2 cells) were rinsed and equilibrated at room temperature for 30 min. Two to three wells per drug/pH/direction were used for data generation. […] HBSS buffer with pH 7.4 was added to the BL chambers. […] For the AP side, drug concentrations of the donor solution were measured prior to introduction into the well and at the end of the study (120 min). In so doing, no buffer replacement was needed. All study samples were labeled and stored at −80 °C until further analysis. The same procedures described above for studying AP→BL permeability were followed when studying BL→AP, with the only difference being that the donor chamber was now the BL side and the receiver chamber was now the AP side. […] The collected samples were stored at −80 °C until further analysis by mass spectrometry (details below). […] The estimated concentrations in the receiver compartment were corrected for drug removed during prior samples. […] These Papp value estimates were further corrected for the percent recovery (Rec (%)) in each well [71, 72] as follows (Equation (3)): […]

[4] = test system: P-gp; conditions: cited from earlier work

- Papp A→B at 120 min, 2 mg/mL ([1]; Human Caco-2, AP→BL pH 6.8/7.4, N = 2, read-out: Papp × 10^−6 Avg): 7.63 ×10⁻⁶ cm/s
- Papp A→B at 120 min, 2 mg/mL ([1]; Human Caco-2, AP→BL pH 6.8/7.4, individual wells, read-out: Papp × 10^−6): 7.25 ×10⁻⁶ cm/s
- Papp × 10^−6 ([2]; 0.2 mg/mL (750.9 μM), Human Caco-2, AP→BL pH 6.8/7.4, individual wells): BLQ
- Papp × 10^−6 ([2]; 0.2 mg/mL (750.9 μM), Human Caco-2, BL→AP pH 7.4/7.4, individual wells): BLQ
- transport across the monolayer ([2]; 0.2 mg/mL, either direction, Caco-2 monolayer): not quantifiable
- Papp × 10^−6 ([2]; 2 mg/mL (7509 μM), Human Caco-2, AP→BL pH 6.8/7.4, individual wells): 8.01 × 10^−6 cm/s
- Papp × 10^−6 ([2]; 2 mg/mL (7509 μM), Human Caco-2, BL→AP pH 7.4/7.4, individual wells): 4.97 × 10^−6 cm/s
- Papp × 10^−6 ([3]; 0.2 mg/mL (750.9 μM), AP→BL pH 6.8/7.4, individual wells): BLQ
- Papp × 10^−6 ([3]; 0.2 mg/mL (750.9 μM), AP→BL pH 7.4/7.4, individual wells): BLQ
- Papp × 10^−6 ([3]; 0.2 mg/mL (750.9 μM), BL→AP pH 7.4/7.4, individual wells): BLQ
- transport across the monolayer ([3]; 0.2 mg/mL, either direction, canine colonoid): not quantifiable
- Papp × 10^−6 ([3]; 2 mg/mL (7509 μM), AP→BL pH 6.8/7.4, individual wells): BLQ
- Papp × 10^−6 ([3]; 2 mg/mL (7509 μM), AP→BL pH 7.4/7.4, individual wells): BLQ
- Papp × 10^−6 ([3]; 2 mg/mL (7509 μM), BL→AP pH 7.4/7.4, individual wells): BLQ
Structure (SMILES): CC(C)NCC(O)COc1ccc(CC(N)=O)cc1 (stereo not drawn) [Atenolol]
- P-gp substrate status [4]: substrate for P-gp
